Test results reported in PubChem BioAssay AID504467 (National Center for Advancing Translational Sciences (NCATS), 2011).
About 7,700 (2.3%) of roughly 330,000 compounds were called active. Inconclusive results, whose numbers are uncertain, are shown with a selection of clear calls. Calls follow the shape of the dose curve; as a rule, active = well fitted inhibition curve with a large enough effect; inconclusive = small, poorly fitted or top-dose-only effect, or effect the other way; inactive = flat fitted curve, though single readings scatter. Potencies beside an inconclusive call are fits to weak or partial responses and may not hold up.

Test: qHTS screen for small molecules that inhibit ELG1-dependent DNA repair in human embryonic kidney (HEK293T) cells expressing luciferase-tagged ELG1; also: nearly all actives have a fitted effect of over 55% in size
Details: HEK293T ELG1-luciferase reporter, luminescence, 16 h, DNA damage induced by 5-fluorouridine; activity change, negative = inhibition: at 46.1 µM (top of the series)
Method in brief: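 Step one: seed 2,000 cells per well. Step two: pin-transfer compound or DMSO alongside 5-fluorouridine. Step three: incubate 16 hr, 37 °C, 5% CO2. Step four: add ONE-Glo, wait 30 min, read luminescence.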
% is scaled to controls: 0 for no effect and ±100 for the full control effect; potency is read from the fitted curve at half-maximal effect.

Row | Structure (SMILES) | Potency | activity change, negative = inhibition
1 | COc1ccccc1N(CC(=O)Nc1cc(S(=O)(=O)N(C)C)ccc1C)S(=O)(=O)c1cccs1 | active: 23.1 µM | 
2 | Brc1ccc(NCc2cccc3ccccc23)nc1 | inconclusive: 14.6 µM [activator, single point] | 
3 | COC(=O)[C@]1(C)CCC[C@@]2(C)C3CC[C@]4(OC(C)=O)C[C@@]3(CCC21)CC4=NO (stereo partly specified) | inconclusive: 16.4 µM [inhibitor, partial curve] | 
4 | Cn1ncc2c(Nc3ccc4ccccc4c3)ncnc21 | inconclusive: 9.2 µM [activator, partial curve] | 
5 | CCCc1nc2ccccc2c(C(=O)OCC(=O)Nc2ccc(S(=O)(=O)N3CCOCC3)cc2)c1CC | active: 20.6 µM | 
6 | CN(C(=O)COC(=O)c1cc(S(=O)(=O)N2CCCCC2)ccc1Cl)c1ccccc1 | inconclusive: 16.4 µM [inhibitor, single point] | 
7 | Cc1cc(OCC(=O)NCCCN2CCCC2=O)c2c(C)c(C)c(=O)oc2c1 |  | inactive: 14.6%
8 | CN1C(=O)[C@H]2[C@@H](/C=C/c3ccccc3)N3C(=O)CN(CCO)C(=O)[C@@]3(C)[C@H]2C1=O |  | inactive: 9.15%
9 | O=C(c1cccc2ccccc12)C1CCCN(C(=O)c2ccc(N3CCOCC3)cc2)C1 (stereo unspecified) | active: 16.4 µM | 
10 | CCN(C(=O)COC(=O)c1ccc(OCc2c(C)noc2C)cc1)c1ccccc1 |  | inactive: -10%
11 | CC(C)c1ccc2c(c1)C(c1ccc(N3CCOCC3)cc1)=NNC(c1cccs1)=N2 | inconclusive: 13 µM [activator, partial curve] | 
12 | CNC(=O)N1CCC(C(=O)c2c(C)c(C)c(C)c(C)c2C)CC1 |  | inactive: 0.896%
13 | CN(C(=O)c1ccncc1)C1CC(C)(C)N(O)C(C)(C)C1 | inconclusive: 1.16 µM [activator, full curve, poor fit] | 
14 | CCCOc1ccc(OCCOCCN2CCc3ccccc3C2)cc1 |  | inactive: -6.82%
15 | O=C(Nc1ccccc1F)c1cc(S(=O)(=O)N2CCCCC2)cs1 | inconclusive: 25.9 µM [inhibitor, single point] | 
16 | Cn1ncc2c(Nc3cc(Cl)cc(Cl)c3)ncnc21 | inconclusive: 29.1 µM [inhibitor, single point] | 
17 | CCOC(=O)Cc1csc(NC(=O)/C=C/c2ccc(Cl)cc2)n1 |  | inactive: -3.89%
18 | CCOCCn1c(CC)nc2ccccc21 |  | inactive: -15.3%
19 | COc1ccc(NC(=O)CSc2nc(N)c3cc4c(nc3n2)CCCC4)cc1 |  | inactive: 14.7%
20 | Cc1cc(NC(=O)CSc2nnc(-c3ccc(Br)o3)n2Cc2ccccc2)no1 | inconclusive: 23.1 µM [inhibitor, single point] | 
21 | CCOc1ccc(NC(=O)CN(C)C(=O)c2ccncc2)cc1OCC |  | inactive: -0.973%
22 | COc1ccc(Nc2nccc(-c3cccc(N)c3)n2)cc1 | inconclusive: 0.651 µM [activator, partial curve] | 
23 | O=C1CC/C=C\C[C@@H](CC(=O)N(CCO)Cc2ccccc2)C(=O)N[C@H](Cc2c[nH]c3ccccc23)CO1 |  | inactive: -0.311%
24 | CCc1ccc(C(c2c(C)nn(-c3ccccc3)c2N)c2c(C)nn(-c3ccccc3)c2N)cc1 | inconclusive: 16.4 µM [inhibitor, partial curve] | 

Row | Structure (SMILES) | Potency | activity change, negative = inhibition
25 | O=C(Nc1ccc(Cl)cc1)Nc1ccccc1C(=O)O | inconclusive: 3.66 µM [activator, full curve] | 
26 | Oc1ccccc1C(Nc1nccs1)c1ccc2cccnc2c1O (stereo unspecified) | active: 3.66 µM | 
27 | Cc1ccc(SCCC(=O)NCCSCc2ccccc2C)cc1 |  | inactive: 11.8%
28 | O=C(O)c1cccc(N/N=C/c2cccs2)c1 | inconclusive: 0.092 µM [activator, full curve, poor fit] | 
29 | Cc1ccc(NC(=O)Cn2c(/C=C/c3ccccc3)nc3ccccc32)cc1C |  | inactive: 16.5%
30 | COc1cccc(/C(O)=C/c2nc3ccc(C(=O)NCCc4ccc(Cl)cc4)cc3[nH]c2=O)c1 | inconclusive: 2.06 µM [inhibitor, partial curve, poor fit] | 
31 | Cc1ccc(-c2nn3c(C)nnc3s2)cc1NC(=O)c1ccc(-c2cccc(Cl)c2)o1 | active: 18.4 µM | 
32 | O=C(Nc1ccccc1)c1ccc(N2CCN(c3ccccn3)CC2)c(S(=O)(=O)N2CCOCC2)c1 | inconclusive: 23.1 µM [inhibitor, partial curve] | 
33 | CN(Cc1ccccc1)C(=O)CCC(=O)N(C)Cc1ccccc1 | inconclusive: 18.4 µM [activator, partial curve] | 
34 | Cc1cccc(NC(=O)CSCC(=O)NCc2cccc(C(F)(F)F)c2)c1 | inconclusive: 14.6 µM [inhibitor, partial curve, poor fit] | 
35 | COc1ccc(NC(=O)CSc2nnc(-c3ccccc3)n2Cc2ccco2)c(OC)c1 | active: 13 µM | 
36 | C/C(=N/NC(=O)c1ccc(C)nc1)c1ccc2c(c1)CCCC2 | inconclusive: 23.1 µM [inhibitor, partial curve, poor fit] | 
37 | COc1ccc(NC(=O)n2ncc3c(C)cccc32)cc1 | inconclusive: 4.61 µM [activator, partial curve] | 
38 | COc1ccc2ccccc2c1/C=N\NC(=O)c1ccc(C)s1 |  | inactive: -13.4%
39 | CNC(=S)N/N=C(\C)c1ccc(Cl)c(Cl)c1 |  | inactive: 16.6%
40 | CC(C)c1nc(SCC(=O)Nc2ccc3c(c2)OCCO3)c2c(=O)n(C)c(=O)n(C)c2n1 |  | inactive: -5.31%
41 | C=CCn1c(SCC(=O)Nc2cccc(S(N)(=O)=O)c2)nnc1C1CCCCC1 |  | inactive: -5.19%
42 | COc1ccc(N(CC(=O)NCc2ccco2)C(=O)CCC(=O)Nc2nccs2)cc1 |  | inactive: -5.96%
43 | CC(=O)n1cc(N(C(=O)CCl)c2ccccc2)c2ccccc21 | inconclusive: 20.6 µM [inhibitor, single point] | 
44 | Cc1cccc2[nH]c3c(N4CCN(C(=O)c5ccco5)CC4)ncnc3c12 | inconclusive: 18.4 µM [inhibitor, single point] | 
45 | Cc1ccc(CNC(=O)CC(C)S(=O)(=O)c2ccc3c(c2)NC(=O)CS3)o1 (stereo unspecified) |  | inactive: -3.76%
46 | O=C(c1cccn2c(=O)c3ccccc3nc12)N1CCN(c2ccccn2)CC1 | inconclusive: 6.51 µM [inhibitor, single point] | 
47 | COc1ccccc1N1CCN(C(=O)c2ccc(Cl)c(S(=O)(=O)NCc3ccco3)c2)CC1 | inconclusive: 14.6 µM [inhibitor, partial curve] | 
48 | O=C1C2C3C=CC(C4CC34)C2C(=O)N1/N=C/c1cccs1 (stereo unspecified) | inconclusive: 20.6 µM [activator, single point] | 

Gathered by group: the compounds so far containing bromine
Row | Structure (SMILES) | Potency | activity change, negative = inhibition
2 | Brc1ccc(NCc2cccc3ccccc23)nc1 | inconclusive: 14.6 µM [activator, single point] | 
20 | Cc1cc(NC(=O)CSc2nnc(-c3ccc(Br)o3)n2Cc2ccccc2)no1 | inconclusive: 23.1 µM [inhibitor, single point] | 

(more compounds)

Row | Structure (SMILES) | Potency | activity change, negative = inhibition
49 | COc1cccc(CNS(=O)(=O)c2cc(CN3C(=O)c4cccnc4C3=O)ccc2OC)c1 | inconclusive: 25.9 µM [activator, partial curve, poor fit] | 
50 | Cn1c(=O)c2c(-c3ccccc3)n(-n3cnnc3)cc2n(C)c1=O | inconclusive: 18.4 µM [activator, single point] | 
51 | CCOC(=O)N1CCN(S(=O)(=O)c2ccc(C(=O)NNc3nc4ccc(Cl)cc4s3)cc2)CC1 | inconclusive: 5.17 µM [inhibitor, full curve, poor fit] | 
52 | O=C(NNC(=S)Nc1ccccc1)c1cccnc1 | inconclusive: 16.4 µM [activator, partial curve] | 
53 | O=C(N/N=C/c1cccnc1)c1ccc(CN2c3cccc4cccc(c34)S2(=O)=O)cc1 | active: 23.1 µM | 
54 | O=C1NC(=O)/C(=C\c2ccc(O)cc2O)S1 | inconclusive: 29.1 µM [activator, single point] | 
55 | CC1CCC(NC(=O)c2cc3c(s2)CCCC3)CC1 (stereo unspecified) | inconclusive: 20.6 µM [activator, partial curve] | 
56 | COc1ccc(-c2nc(CS(=O)CC(=O)NC3CCC(C)CC3)c(C)o2)cc1OC (stereo unspecified) | inconclusive: 23.1 µM [activator, partial curve] | 
57 | Cc1nc2ccccc2n1CC(=O)OCC(=O)N1CCC(C)CC1 | inconclusive: 6.51 µM [inhibitor, full curve, poor fit] | 
58 | C=CCn1c(C)cc(C(=O)CN2C(=O)NC3(CCCc4ccccc43)C2=O)c1C (stereo unspecified) | inconclusive: 16.4 µM [activator, single point] | 
59 | CCOc1ccc(NC(=O)CCc2ccc(C)o2)cc1 | inconclusive: 29.1 µM [activator, partial curve, poor fit] | 
60 | CCOc1ccc2nc(NC(=O)CCC(=O)c3cccs3)sc2c1 | inconclusive: 16.4 µM [activator, partial curve] | 
61 | Cc1ccc(C2=Nc3ccccc3N=C(C(Cl)Cl)C2)cc1 | inconclusive: 2.59 µM [activator, partial curve] | 
62 | Cn1nccc1C(=O)N1CCOCC1 |  | inactive: -2.73%
63 | CC[C@H](C)C(N)c1cn([C@@H](CC(N)=O)C(=O)N2CCNCC2)nn1 (stereo partly specified) |  | inactive: 17.3%
64 | O=c1c(/C=N/OCc2ccc(Cl)cc2Cl)c[nH]n1-c1cccc(Cl)n1 | inconclusive: 29.1 µM [inhibitor, single point] | 
65 | Cc1ccc(-n2ncc3c(=O)n(Cc4ccccn4)cnc32)cc1C | inconclusive: 9.2 µM [activator, partial curve] | 
66 | Cc1ccc2cccc(OC(=O)c3ccc4c(c3)OCCO4)c2n1 | inconclusive: 20.6 µM [activator, single point] | 
67 | COc1ccc(OC)c(S(=O)(=O)N2CCC(C(=O)Nc3cccc(C)c3)CC2)c1 | active: 20.6 µM | 
68 | CCOC(=O)c1c(C)[nH]c(C(=O)NCc2ccccn2)c1C | inconclusive: 14.6 µM [activator, partial curve] | 
69 | CCNC(=S)/N=C(/Nc1ccc(OC)cc1)Nc1nc(C)cc(C)n1 |  | inactive: -5.83%
70 | CCOC(=O)C(CC)n1cnc2c(nnn2-c2ccc(F)cc2)c1=O (stereo unspecified) | inconclusive: 32.6 µM [activator, partial curve, poor fit] | 
71 | COc1ccc(-c2cc(C(=O)N3CCCC3)no2)cc1 | inconclusive: 1.46 µM [activator, partial curve] | 

Excerpt: entries 64 to 65
Row | Structure (SMILES) | Potency | activity change, negative = inhibition
64 | O=c1c(/C=N/OCc2ccc(Cl)cc2Cl)c[nH]n1-c1cccc(Cl)n1 | inconclusive: 29.1 µM [inhibitor, single point] | 
65 | Cc1ccc(-n2ncc3c(=O)n(Cc4ccccn4)cnc32)cc1C | inconclusive: 9.2 µM [activator, partial curve] | 
